Results reported in paper PMC7647994 (2020).
Results are given in words; binding and its absence hold for the method and conditions named. In cells and extracts the contact can be indirect. For some of these results: Binding can be weak; no strength is given. Sequences can lack the tags named with a protein.

B1: untagged PDIP38 (protein, UniProt Q9Y2S7 52-368)
chain: SSRNRPEGKVLETVGVFEVPKQNGKYETGQLFLHSIFGYRGVVLFPWQARLYDRDVASAAPEKAENPAGHGSKEVKGKTHTYYQVLIDARDCPHISQRSQTEAVTFLANHDDSRALYAIPGLDYVSHEDILPYTSTDQVPIQHELFERFLLYDQTKAPPFVARETLRAWQEKNHPWLELSDVHRETTENIRVTVIPFYMGMREAQNSHVYWWRYCIRLENLDSDVVQLRERHWRIFSLSGTLETVRGRGVVGREPVLSKEQPAFQYSSHVSLQASSGHMWGTFRFERPDGSHFDVRIPPFSLESNKDEKTPPSGLHW
B2: GST-PDIP38N, N-terminal domain of PDIP38 fused to GST (domain or fragment, UniProt Q9Y2S7 52-153)
chain: SSRNRPEGKVLETVGVFEVPKQNGKYETGQLFLHSIFGYRGVVLFPWQARLYDRDVASAAPEKAENPAGHGSKEVKGKTHTYYQVLIDARDCPHISQRSQTE
B3: GST-PDIP38 fusion protein (natural protein)
chain: SSRNRPEGKVLETVGVFEVPKQNGKYETGQLFLHSIFGYRGVVLFPWQARLYDRDVASAAPEKAENPAGHGSKEVKGKTHTYYQVLIDARDCPHISQRSQTEAVTFLANHDDSRALYAIPGLDYVSHEDILPYTSTDQVPIQHELFERFLLYDQTKAPPFVARETLRAWQEKNHPWLELSDVHRETTENIRVTVIPFYMGMREAQNSHVYWWRYCIRLENLDSDVVQLRERHWRIFSLSGTLETVRGRGVVGREPVLSKEQPAFQYSSHVSLQASSGHMWGTFRFERPDGSHFDVRIPPFSLESNKDEKTPPSGLHW
B4: GST-PDIP38C, C-terminal domain of PDIP38 fused to GST (domain or fragment, UniProt Q9Y2S7 157-368)
chain: FLANHDDSRALYAIPGLDYVSHEDILPYTSTDQVPIQHELFERFLLYDQTKAPPFVARETLRAWQEKNHPWLELSDVHRETTENIRVTVIPFYMGMREAQNSHVYWWRYCIRLENLDSDVVQLRERHWRIFSLSGTLETVRGRGVVGREPVLSKEQPAFQYSSHVSLQASSGHMWGTFRFERPDGSHFDVRIPPFSLESNKDEKTPPSGLHW

How the values were obtained:
[1] = molecular target: H10-tagged zinc-binding domain of human CLPX (human); experiment: pull-down; H10-tagged CLPX domains (ZBD, ZBD4A, E-domain, ecZBD) immobilised to Ni-NTA agarose, E. coli lysate with GST-PDIP38 or untagged PDIP38 applied; 20 mM HEPES-KOH pH 7.5, 100 mM K(OAc), 65 mM imidazole, 0.5% Triton X-100, 4 °C, 30 min; only the target purified
[2] = molecular target: ZBD4A, zinc-binding domain of human CLPX with residues 120-123 (SSTR) replaced with AAAA (human); experiment: as above
[3] = molecular target: CLPX4A, full-length human CLPX with residues 120-123 (SSTR) replaced with AAAA (human); experiment: pull-down; H10-tagged full-length CLPX (wild type or 4A) immobilised to Ni-NTA agarose, E. coli lysate with GST-PDIP38, GST-PDIP38N, GST-PDIP38C or untagged PDIP38 applied; 20 mM HEPES-KOH pH 7.5, 100 mM K(OAc), 65 mM imidazole, 0.5% Triton X-100, 2 mM ATP, 10 mM β-mercaptoethanol, 4 °C, 30 min; only the target purified
[4] = molecular target: His10-tagged human CLPX (H10CLPX) (human); experiment: as above
[5] = molecular target: H10-tagged E-domain of human CLPX (human); experiment: pull-down; H10-tagged CLPX domains (ZBD, ZBD4A, E-domain, ecZBD) immobilised to Ni-NTA agarose, E. coli lysate with GST-PDIP38 or untagged PDIP38 applied; 20 mM HEPES-KOH pH 7.5, 100 mM K(OAc), 65 mM imidazole, 0.5% Triton X-100, 4 °C, 30 min; only the target purified
[6] = molecular target: H10-tagged zinc-binding domain of E. coli ClpX (Escherichia coli); experiment: as above

| Binder | binding [1] | binding [2] | binding [3] | binding [4] | binding [5] | binding [6] |
| --- | --- | --- | --- | --- | --- | --- |
| B1 | binds | no binding | no binding | binds |  |  |
| B2 |  |  |  | binds |  |  |
| B3 | binds |  |  | binds | no binding | no binding |
| B4 |  |  |  | no binding |  |  |
